{
  "source": "patent US20170326232A1",
  "about": "“INTRATUMORAL ADMINISTRATION OF PARTICLES CONTAINING A TOLL-LIKE RECEPTOR 9 AGONIST AND A TUMOR ANTIGEN FOR TREATING CANCER” (Dynavax Technologies Corporation, priority 2016, published 2017)",
  "test": "Adsorption of peptide antigens to aluminum hydroxide, quantified by UV, amino acid analysis or RP-HPLC",
  "type": "physicochemical",
  "details": "0.1 M sodium bicarbonate, pH 8.0",
  "note": "At least one peptide structure holds a part that was inferred or is arguable (an end, a ring closure or a residue). Ends that are not written are not given here.",
  "data": [
    {"sequence": "CSGLEQLESIINFEKLTEWTSSNVMEERKIKV [OVApep]", "values": [
      {"measurement": "maximum binding capacity per 1.0 mg of aluminum hydroxide", "result": 0.3, "unit": "mg"}
    ]}
  ]
}
